# From PubChem BioAssay AID1259415 (National Center for Advancing Translational Sciences (NCATS), 2018)
# Several values for one entry are separate records, joined by “and”; a condition that tells them apart may be missing. Equal entries are not always repeated. About 18,000 (4.4%) of roughly 410,000 compounds were called active. This list was built around the results that the source calls inconclusive (neither active nor inactive); the mix of calls is not that of the screen. No stated cut-off is given here; in the data, active means activity change below about -60%; inconclusive means no clear call, values can overlap the other calls; inactive means above about -39%.
# Experiment: qHTS Assay for inhibitors of the human cytomegalovirus (HCMV)
# Settings: HFF cells, HCMV-luciferase reporter, 72 h; at 57.5 µM; hits give low values
# Outline: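 Two compound doses tested in HFFs infected with HCMV-luciferase, MOI 1 PFU/cell, 72 h at 37C. Lysate luminescence read with OneGlo; data normalized against buffer-only and 10uM Salinomycin inhibitor controls.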
# On the % scale 0 is the no-effect control and ±100 the full control effect.
row,SMILES,"activity change, negative = inhibition"
1,OC(CN1CCN(c2ccccc2)CC1)c1ccc2c(c1)CCN2 (stereo unspecified),inactive: 25.8%
2,COc1ccc(CN(C)C[C@@H]2OCCCC[C@H](C)Oc3ccc(NC(=O)Nc4ccc(F)cc4)cc3C(=O)N([C@H](C)CO)C[C@H]2C)cc1,active: -102%
3,COC(=O)c1ccc(C2/C(=C(\O)c3cccc(OC)c3)C(=O)C(=O)N2CCCN(C)C)cc1 (stereo unspecified),inconclusive: -42.3%
4,CCOC(=O)c1c(NC(=O)CN2C(=O)NC3(CCC(CC)CC3)C2=O)sc(C)c1-c1ccc(C)cc1 (stereo unspecified),inconclusive: -46.5%
5,Cc1ccc(-c2csc3ncnc(SCC(=O)NCc4ccc5c(c4)OCO5)c23)cc1,inconclusive: -55.5%
6,COc1ccc2nc(C)cc(SCC(=O)N/N=C/c3cccc4ccccc34)c2c1,active: -68.2%
7,COc1ccc(-c2nnc(SCc3nnc(-c4ccccc4)o3)n2-c2ccccc2)cc1,inconclusive: -48.4%
8,C=CCNC(=S)N/N=C/c1ccc(-c2ccc(Cl)cc2Cl)o1,inconclusive: -57.7%
9,Cc1ccc(CCNC(=O)c2cc(C)nn2-c2ccccc2)cc1,inconclusive: -40.3%
10,CCOCC(=O)Nc1ccc(Br)c(C)c1,inconclusive: -41.4%
11,CN(Cc1ccc(F)cc1)C(=O)C(c1ccccc1)c1ccccc1,inconclusive: -41.5%
12,CC(C)(C)c1ccc(C(=O)NCC(=O)OCC(=O)Nc2nc(-c3ccc(F)cc3)cs2)cc1,inconclusive: -44.6%
13,Cc1ccc(-n2ncc(C(=O)NC3CC3)c2C2CCN(C(=O)OC(C)(C)C)CC2)c(C)c1,inconclusive: -43.9%
14,Clc1ccc(-c2nnc(-c3ccccc3)c(-c3ccccc3)n2)cc1,inconclusive: -49.6%
15,Cc1cccc(/C=N/NC(=O)Cn2nccc2C)n1,inconclusive: -59.7%
16,CC(=Nc1ccc(Cl)cc1N)c1c(O)cc(C)oc1=O,inactive: 112%
17,O=C(Nc1nc(-c2ccc(Br)cc2)cs1)c1cccnc1,active: -63.6%
18,Cc1ccc(S(=O)(=O)N2CCOCC2)cc1NC(=O)c1cc2ccccc2oc1=O,active: -101%
19,O=C(Nc1ccc(F)cc1)Nc1nnc(-c2ccncc2)s1,active: -94.7%
20,CCOc1cc(/C=C/C(=O)c2ccc(OC)c(CN3CCOCC3)c2)cc(Br)c1O,active: -98%
21,Cc1cc2c3c([nH]c2cc1S(=O)(=O)N1CCC2(CC1)OCCO2)CCCC3=O,inconclusive: -59%
22,Cc1cc(C)cc(NC(=O)CN2C(=O)NC(Cc3c[nH]c4ccccc34)C2=O)c1 (stereo unspecified),inactive: 0.455%

row,SMILES,"activity change, negative = inhibition"
1,O=C(CSc1nc2ccccc2c(=O)n1-c1ccc(F)cc1F)Nc1ccc(N2CCOCC2)cc1,inconclusive: -43.8%
2,CCCC[C@@H]1CC2=C(C(=O)OC(C)(C)O2)[C@H](c2ccc(C(C)C)cc2)O1,inactive: -3.67%
3,O=C(c1cccc(-c2ccccc2F)c1)N1CC[C@@H](N2CCC(O)CC2)[C@H](O)C1,inconclusive: -49.2%
4,NC1(C(=O)O)CCCCC1c1ccccc1 (stereo unspecified),inconclusive: -47.3%
5,COc1ccc(-c2nn(-c3ccccc3)cc2C(N)=O)cc1OC,inactive: 9.28%
6,CCCC(=O)N1CCN(c2ccc(NC(=O)c3cccs3)cc2Cl)CC1,inactive: 2.03%
7,CCOc1ccccc1CNC(=O)c1c(C)oc2ncnc(N3CCOCC3)c12,inconclusive: -50.6%
8,COc1ccc(-c2cn3cc([N+](=O)[O-])ccc3n2)cc1OC,inconclusive: -59.3%
9,Cc1nc2sc3c(c2c(=O)[nH]1)CCCC3,inconclusive: -43.7%
10,O=C(O)C1CC=CCC1C(=O)NNc1c(Cl)cc(Cl)cc1Cl (stereo unspecified),inconclusive: -43.2%
11,CCOC(=O)/C=C1\Nc2ccccc2OC1=O,inconclusive: -51.2%
12,O=C(CSc1nnc2n1CCCCC2)NCc1ccccc1,inconclusive: -52.1%
13,CC[n+]1c(-c2ccccc2)c2cc(N)ccc2c2ccc(N)cc21,active: -99.5%
14,CCc1ccccc1Nc1nn2c(=O)c3ccc(C(=O)NCc4ccccc4OC)cc3nc2s1,inconclusive: -40.2%
15,CN(C)CCCNC(=S)N1CCN(c2nc(-c3ccccc3)cs2)CC1,inactive: -3.01%
16,Cc1ccccc1-c1nc(CN(Cc2c(C)nn(C)c2C)C2CC2)c(C)o1,inconclusive: -56.2%
17,CCn1c(-c2ccco2)nc2ccccc21,inactive: 41.8%
18,CCCSc1nnc(N2C(=O)C(O)=C(C(=O)c3ccco3)C2c2ccccc2F)s1 (stereo unspecified),inconclusive: -51%
19,COc1ccc(N2CCN(c3csc4ccc(Cl)cc4c3=O)CC2)cc1,inactive: 4.09%
20,COc1ccccc1NC(=O)c1ccc2c(c1)N(CC#N)C(=O)C(C)(C)O2,inconclusive: -44%
21,Cc1ccccc1CN1CCSc2sccc2C1=O,inconclusive: -48.6%
22,CCN(C(=O)COC(=O)c1cccc(-n2cnnn2)c1)C1CCCCC1,inconclusive: -52.6%

# An excerpt from above in order of length of the SMILES, ascending.
row,SMILES,"activity change, negative = inhibition"
4,NC1(C(=O)O)CCCCC1c1ccccc1 (stereo unspecified),inconclusive: -47.3%
21,Cc1ccccc1CN1CCSc2sccc2C1=O,inconclusive: -48.6%
6,CCCC(=O)N1CCN(c2ccc(NC(=O)c3cccs3)cc2Cl)CC1,inactive: 2.03%
16,Cc1ccccc1-c1nc(CN(Cc2c(C)nn(C)c2C)C2CC2)c(C)o1,inconclusive: -56.2%

# (next part)

row,SMILES,"activity change, negative = inhibition"
1,CCOc1ccc(S(=O)(=O)Nc2ccc3c(c2)OCO3)cc1,inconclusive: -48.6%
2,CC1CC(C)CN(C(=O)COC(=O)/C=C/c2ccco2)C1 (stereo unspecified),inconclusive: -47.6%
3,Cc1ccc(-c2nc3ccccc3nc2Cl)cc1,inconclusive: -44.6%
4,COC(=O)c1ccc(-c2nc(-c3cccs3)no2)cc1,inconclusive: -44.7%
5,CC(=O)c1cccc(NC(=O)c2cccc3c(-c4cnn(C)c4)coc23)c1,inconclusive: -40.3%
6,CNS(=O)(=O)c1cn(CC(=O)N2CCN(c3cccc(C)c3C)CC2)cc1S(=O)(=O)NC,inconclusive: 0%
7,O=c1c2ccccc2nc(/C=C/c2cccc3ccccc23)n1-c1ccccc1Cl,inconclusive: -40.2%
8,O=c1cc(-c2ccccc2)nc(SCc2nc(-c3ccc(Cl)cc3)no2)[nH]1,inconclusive: 0%
9,Cc1ccc(N(C)C(=O)N2CCN(S(=O)(=O)c3ccc(C)cc3)CC2)cc1,inconclusive: -49%
10,CCOC(=O)N1CCC(NC(=O)CS(=O)Cc2nc(-c3ccc(Cl)cc3)oc2C)CC1 (stereo unspecified),inconclusive: -51%
11,O=C(Nc1nnc(-c2cccs2)o1)c1ccc(S(=O)(=O)N2CCOCC2)cc1,active: -84.5%
12,FC(F)(F)c1ccccc1CN1CCCC(N2CCN(c3ccccc3)CC2)C1 (stereo unspecified),active: -60.9%
13,COc1ccccc1OCC(O)Cn1c(=N)n(CCN2CCCCC2)c2ccccc21 (stereo unspecified),inconclusive: -40.5%
14,COc1ccc(C(=O)N/C(=C\c2cccc3ccccc23)C(=O)N2CCN(C)CC2)cc1OC,inactive: -35.8%
15,CCN(CC)S(=O)(=O)c1cccc(C(=O)Nc2ccc(C#N)cc2)c1,inconclusive: -59.5%
16,CCOC(=O)C1=C[C@@H](C2CCCC2)N(S(=O)(=O)c2ccc([N+](=O)[O-])cc2)[C@H]1c1ccccc1,inconclusive: -57%
17,O=C(N/N=C/c1cccn1-c1ccc([N+](=O)[O-])cc1)C(O)c1ccccc1 (stereo unspecified),inconclusive: -48.4%
18,C=CCn1c(-c2cc3c(s2)CCC(CC)C3)n[nH]c1=S (stereo unspecified),inconclusive: -49.6%
19,CC(C)OCCCNC(=O)c1cc(Sc2ccc(F)cc2)nc2ccccc12,inconclusive: -53.1%
20,O=C(CN1C(=O)C2CC=CCC2C1=O)Nc1ccc(S(=O)(=O)N2CCOCC2)cc1 (stereo unspecified),inconclusive: -40.5%
21,O=C(Nc1cc(C(F)(F)F)ccc1-n1cncn1)c1ccc(Br)cc1,inconclusive: -55%
22,CS(=O)(=O)c1ccc(Cl)c(NC(=O)Cc2c(Cl)cccc2Cl)c1,inconclusive: -47.6%

row,SMILES,"activity change, negative = inhibition"
1,Cc1ccc(CNC(=O)Nc2ccc(F)cc2F)n1C,inconclusive: -41.4%
2,CC(=O)c1ccc2noc(-c3ccc(F)cc3)c2c1,inconclusive: -57.6%
3,O=C(NC(Cc1c[nH]c2ccccc12)C(=O)Nc1ccc(F)cc1)c1cccs1 (stereo unspecified),inconclusive: -40.3%
4,CCC(C)(C)c1ccc(OCC(=O)N(C)C)c(C(C)(C)CC)c1,inconclusive: -54.4%
5,Cc1cc(C)c2c(CC(=O)N3CCCC3)coc2c1,inactive: -13.7%
6,O=[N+]([O-])c1ccc(N2CCCCC2)cc1N1CCOCC1,inactive: 0.568%
7,O=[N+]([O-])c1ccc(SCCc2ccncc2)cc1,inconclusive: -47.8% and inconclusive: -54.2%
8,CCN(c1ccccc1)S(=O)(=O)c1ccc(NC(=S)NC(=O)c2cccs2)cc1,inconclusive: -40.7%
9,CCc1ccc(-c2nc(CS(=O)CC(=O)NCc3cccnc3)c(C)o2)cc1 (stereo unspecified),inactive: 39.2%
10,Cc1ccc2[nH]c(C)cc(=S)c2c1,inconclusive: -59.7%
11,CCOC(=O)C1=CCN(S(=O)(=O)c2ccccc2C)C1c1cccc(Br)c1 (stereo unspecified),inconclusive: -43.9%
12,O=C(CCC1CCCN(C(=O)c2ccc3cc[nH]c3c2)C1)N1CCN(c2ccccn2)CC1 (stereo unspecified),inconclusive: -47.5%
13,CSc1cccc(Nc2cc(C(=O)NCCc3ccc(Cl)cc3)c3ccccc3n2)c1,active: -102%
14,O=C(Cn1cnc2c(nnn2-c2cccc(Cl)c2)c1=O)N1CCOCC1,inconclusive: -43.5%
15,COc1ccc(OCC(=O)NNC(=O)c2ccccn2)cc1,inactive: 83%
16,Cc1ccc(-c2onc3ccc(C(=O)/C=C/N(C)C)cc23)cc1,inconclusive: -45.7%
17,CC(=O)Nc1ccc(S(=O)(=O)NCC2CCC(C(=O)N3CC(C)CC(C)C3)CC2)cc1 (stereo unspecified),inconclusive: -53.9%
18,COc1ccc(C(=O)COC(=O)CCNS(=O)(=O)c2ccccc2)c(OC)c1,inactive: -27.9%
19,Cc1ccc(NC(=O)CN(C)S(=O)(=O)c2cccc3cccnc23)cc1,inconclusive: -47.3%
20,CCOC(=O)c1cc2c(ccn2C)n1Cc1ccccc1Cl,inconclusive: -42.4%
